Experimental findings from publication PMC11443168 are described below.

Chains of the proteins cited; added tags and fusions are not shown. Residues count along the entry.
UniProt P30101, residues 25-505: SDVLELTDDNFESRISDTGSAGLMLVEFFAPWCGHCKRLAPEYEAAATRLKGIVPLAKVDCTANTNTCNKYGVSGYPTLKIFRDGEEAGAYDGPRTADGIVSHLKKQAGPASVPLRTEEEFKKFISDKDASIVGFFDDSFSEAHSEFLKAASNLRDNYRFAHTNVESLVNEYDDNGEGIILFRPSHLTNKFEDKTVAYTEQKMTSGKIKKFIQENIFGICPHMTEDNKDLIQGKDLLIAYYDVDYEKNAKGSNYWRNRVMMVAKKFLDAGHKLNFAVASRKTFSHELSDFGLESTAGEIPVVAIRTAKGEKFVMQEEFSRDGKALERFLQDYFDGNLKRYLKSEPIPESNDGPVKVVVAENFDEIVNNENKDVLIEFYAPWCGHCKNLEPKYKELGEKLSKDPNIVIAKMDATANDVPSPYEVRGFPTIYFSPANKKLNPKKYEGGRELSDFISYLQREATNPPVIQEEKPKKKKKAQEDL
UniProt P07237, residues 18-508: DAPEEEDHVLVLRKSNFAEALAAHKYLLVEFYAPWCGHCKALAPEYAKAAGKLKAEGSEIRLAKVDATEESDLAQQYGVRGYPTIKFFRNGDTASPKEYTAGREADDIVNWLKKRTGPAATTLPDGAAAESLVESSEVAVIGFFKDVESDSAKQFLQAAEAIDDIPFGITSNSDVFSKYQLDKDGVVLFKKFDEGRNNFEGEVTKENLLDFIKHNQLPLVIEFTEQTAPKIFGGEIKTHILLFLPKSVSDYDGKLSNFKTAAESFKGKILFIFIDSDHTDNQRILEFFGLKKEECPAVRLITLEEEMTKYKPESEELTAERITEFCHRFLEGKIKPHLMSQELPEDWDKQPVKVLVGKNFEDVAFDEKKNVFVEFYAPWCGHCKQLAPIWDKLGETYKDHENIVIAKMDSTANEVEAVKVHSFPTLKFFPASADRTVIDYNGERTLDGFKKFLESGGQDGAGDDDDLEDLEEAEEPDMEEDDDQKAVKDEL

Test [1] concerns the target T1, TMX5/TXNDC15, V5-tagged (TMX5-V5 WT) (UniProt Q96J42).
T1 sequence: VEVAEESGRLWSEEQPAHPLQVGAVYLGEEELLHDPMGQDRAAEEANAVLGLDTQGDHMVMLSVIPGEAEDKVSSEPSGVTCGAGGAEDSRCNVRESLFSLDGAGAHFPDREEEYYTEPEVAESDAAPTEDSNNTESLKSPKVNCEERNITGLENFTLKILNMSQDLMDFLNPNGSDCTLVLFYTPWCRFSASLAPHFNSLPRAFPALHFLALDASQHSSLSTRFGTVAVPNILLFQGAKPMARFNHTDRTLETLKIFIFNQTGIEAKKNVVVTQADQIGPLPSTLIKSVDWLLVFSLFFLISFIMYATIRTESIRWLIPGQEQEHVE
In words: co-IP; V5-TMX5 or V5-TMX5 C220A immunoisolated with anti-V5 beads from HEK293 lysates (RIPA, 20 mM NEM); non-reducing and reducing SDS-PAGE; Western blot for endogenous PDI, ERp57, ERp44. For orientation: In western blotting, separated proteins are transferred to a membrane and probed.

Test [2] deals with T2, TMX5_(C220A), V5-tagged (UniProt Q96J42).
T2 sequence: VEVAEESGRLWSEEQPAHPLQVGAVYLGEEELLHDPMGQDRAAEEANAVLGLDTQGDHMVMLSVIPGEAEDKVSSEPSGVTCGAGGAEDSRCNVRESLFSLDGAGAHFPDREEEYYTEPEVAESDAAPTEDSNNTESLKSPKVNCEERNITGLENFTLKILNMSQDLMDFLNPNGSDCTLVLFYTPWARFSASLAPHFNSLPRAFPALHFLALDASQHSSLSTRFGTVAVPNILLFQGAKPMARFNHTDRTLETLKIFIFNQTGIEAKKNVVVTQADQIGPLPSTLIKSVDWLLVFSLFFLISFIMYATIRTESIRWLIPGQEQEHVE
The test is described as above.

Test [3] addresses T3, HA-tagged ERp44 (ERp44wt) (UniProt Q9BS26).
T3 sequence: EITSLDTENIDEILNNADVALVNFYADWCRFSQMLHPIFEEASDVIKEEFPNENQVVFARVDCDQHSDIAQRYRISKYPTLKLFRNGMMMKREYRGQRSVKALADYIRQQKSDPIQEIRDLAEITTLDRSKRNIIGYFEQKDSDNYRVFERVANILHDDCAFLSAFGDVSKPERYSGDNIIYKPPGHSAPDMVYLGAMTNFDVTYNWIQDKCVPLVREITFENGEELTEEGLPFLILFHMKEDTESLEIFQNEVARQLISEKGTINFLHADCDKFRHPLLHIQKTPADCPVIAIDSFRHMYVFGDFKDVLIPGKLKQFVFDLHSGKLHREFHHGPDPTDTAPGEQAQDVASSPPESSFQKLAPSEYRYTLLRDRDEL
In words: co-IP; HEK293 cells co-expressing V5-tagged TMX5 (or cysteine mutants) and HA-tagged ERp44; immunoisolation with anti-HA antibody (ERp44 as bait), non-reducing/reducing SDS-PAGE, Western blot with anti-V5.

Test [4] deals with T2, TMX5_(C220A), V5-tagged. The test can be described thus: non-reducing SDS-PAGE and Western blot of mixed disulfides; post-nuclear fractions of HEK293 cells co-transfected with V5-tagged TMX5 or TMX5 C220A and HA-tagged ERp44 or ERp44 C29S; no immunoprecipitation; anti-V5 blot in non-reducing and reducing conditions; TMX5-ss-ERp44 band.

Results are given in words; binding and its absence hold for the method and conditions named. For some assays here: In cells and extracts the contact can be indirect. Some binding calls cover weakened binding; strength is not graded here. Where a sequence is shown, tags or fusion partners need not be part of it.

With “endogenous ERp57 (PDIA3) (from UniProt P30101 25-505)”, the binding result in test [1] was “binds”; in the test with TMX5_(C220A), V5-tagged [2], “binds”.

For “endogenous PDI (PDIA1) (from UniProt P07237 18-508)”, the binding entry in test [1] was “binds”; with TMX5_(C220A), V5-tagged [2] it was “binds”.

B1: TMX5/TXNDC15, V5-tagged (TMX5-V5 WT) (protein, UniProt Q96J42 33-360)
chain: VEVAEESGRLWSEEQPAHPLQVGAVYLGEEELLHDPMGQDRAAEEANAVLGLDTQGDHMVMLSVIPGEAEDKVSSEPSGVTCGAGGAEDSRCNVRESLFSLDGAGAHFPDREEEYYTEPEVAESDAAPTEDSNNTESLKSPKVNCEERNITGLENFTLKILNMSQDLMDFLNPNGSDCTLVLFYTPWCRFSASLAPHFNSLPRAFPALHFLALDASQHSSLSTRFGTVAVPNILLFQGAKPMARFNHTDRTLETLKIFIFNQTGIEAKKNVVVTQADQIGPLPSTLIKSVDWLLVFSLFFLISFIMYATIRTESIRWLIPGQEQEHVE
With B1, the binding result in test [3] is reported as “binds”.

B2: TMX5_(C114A), V5-tagged (protein, UniProt Q96J42 33-360)
chain: VEVAEESGRLWSEEQPAHPLQVGAVYLGEEELLHDPMGQDRAAEEANAVLGLDTQGDHMVMLSVIPGEAEDKVSSEPSGVTAGAGGAEDSRCNVRESLFSLDGAGAHFPDREEEYYTEPEVAESDAAPTEDSNNTESLKSPKVNCEERNITGLENFTLKILNMSQDLMDFLNPNGSDCTLVLFYTPWCRFSASLAPHFNSLPRAFPALHFLALDASQHSSLSTRFGTVAVPNILLFQGAKPMARFNHTDRTLETLKIFIFNQTGIEAKKNVVVTQADQIGPLPSTLIKSVDWLLVFSLFFLISFIMYATIRTESIRWLIPGQEQEHVE
As for B2, the binding entry in test [3] was “binds”.

B3: TMX5_(C220A), V5-tagged (protein, UniProt Q96J42 33-360)
chain: VEVAEESGRLWSEEQPAHPLQVGAVYLGEEELLHDPMGQDRAAEEANAVLGLDTQGDHMVMLSVIPGEAEDKVSSEPSGVTCGAGGAEDSRCNVRESLFSLDGAGAHFPDREEEYYTEPEVAESDAAPTEDSNNTESLKSPKVNCEERNITGLENFTLKILNMSQDLMDFLNPNGSDCTLVLFYTPWARFSASLAPHFNSLPRAFPALHFLALDASQHSSLSTRFGTVAVPNILLFQGAKPMARFNHTDRTLETLKIFIFNQTGIEAKKNVVVTQADQIGPLPSTLIKSVDWLLVFSLFFLISFIMYATIRTESIRWLIPGQEQEHVE
As for B3, in test [3], the binding entry was “binds”.

B4: TMX5_(C210A), V5-tagged (protein, UniProt Q96J42 33-360)
chain: VEVAEESGRLWSEEQPAHPLQVGAVYLGEEELLHDPMGQDRAAEEANAVLGLDTQGDHMVMLSVIPGEAEDKVSSEPSGVTCGAGGAEDSRCNVRESLFSLDGAGAHFPDREEEYYTEPEVAESDAAPTEDSNNTESLKSPKVNCEERNITGLENFTLKILNMSQDLMDFLNPNGSDATLVLFYTPWCRFSASLAPHFNSLPRAFPALHFLALDASQHSSLSTRFGTVAVPNILLFQGAKPMARFNHTDRTLETLKIFIFNQTGIEAKKNVVVTQADQIGPLPSTLIKSVDWLLVFSLFFLISFIMYATIRTESIRWLIPGQEQEHVE
Consider B4, for which, in test [3], the binding entry is listed as “binds”.

B5: TMX5_(C124A), V5-tagged (protein, UniProt Q96J42 33-360)
chain: VEVAEESGRLWSEEQPAHPLQVGAVYLGEEELLHDPMGQDRAAEEANAVLGLDTQGDHMVMLSVIPGEAEDKVSSEPSGVTCGAGGAEDSRANVRESLFSLDGAGAHFPDREEEYYTEPEVAESDAAPTEDSNNTESLKSPKVNCEERNITGLENFTLKILNMSQDLMDFLNPNGSDCTLVLFYTPWCRFSASLAPHFNSLPRAFPALHFLALDASQHSSLSTRFGTVAVPNILLFQGAKPMARFNHTDRTLETLKIFIFNQTGIEAKKNVVVTQADQIGPLPSTLIKSVDWLLVFSLFFLISFIMYATIRTESIRWLIPGQEQEHVE
In the case of B5, the binding result in test [3] is on record as “binds”.

B6: TMX5_(C177A), V5-tagged (protein, UniProt Q96J42 33-360)
chain: VEVAEESGRLWSEEQPAHPLQVGAVYLGEEELLHDPMGQDRAAEEANAVLGLDTQGDHMVMLSVIPGEAEDKVSSEPSGVTCGAGGAEDSRCNVRESLFSLDGAGAHFPDREEEYYTEPEVAESDAAPTEDSNNTESLKSPKVNAEERNITGLENFTLKILNMSQDLMDFLNPNGSDCTLVLFYTPWCRFSASLAPHFNSLPRAFPALHFLALDASQHSSLSTRFGTVAVPNILLFQGAKPMARFNHTDRTLETLKIFIFNQTGIEAKKNVVVTQADQIGPLPSTLIKSVDWLLVFSLFFLISFIMYATIRTESIRWLIPGQEQEHVE
As for B6, the binding entry in test [3] is “binds”.

B7: HA-tagged ERp44_(C29S) (protein, UniProt Q9BS26 30-406)
chain: EITSLDTENIDEILNNADVALVNFYADWSRFSQMLHPIFEEASDVIKEEFPNENQVVFARVDCDQHSDIAQRYRISKYPTLKLFRNGMMMKREYRGQRSVKALADYIRQQKSDPIQEIRDLAEITTLDRSKRNIIGYFEQKDSDNYRVFERVANILHDDCAFLSAFGDVSKPERYSGDNIIYKPPGHSAPDMVYLGAMTNFDVTYNWIQDKCVPLVREITFENGEELTEEGLPFLILFHMKEDTESLEIFQNEVARQLISEKGTINFLHADCDKFRHPLLHIQKTPADCPVIAIDSFRHMYVFGDFKDVLIPGKLKQFVFDLHSGKLHREFHHGPDPTDTAPGEQAQDVASSPPESSFQKLAPSEYRYTLLRDRDEL
For the molecule B7, the binding entry in the test with TMX5_(C220A), V5-tagged [4] is on record as “no binding”.
